The list shows a part of the results.

B1: il10ra_site1_sap_7_mot_774d882d7ae63910a49ba8e2c216af69_0001_1_000000290_0001_18_33_H_._HHH_b1_08328_af2_0001_0000500012_0000001_0_0001 (protein)
chain: SSSSSEELKEEVEELLEEAKEIEDPRKANEVLTRALQLAIQLGDPELLRLVWRVFRELVKSSSSS
B2: il10ra_site1_normal_mot_HHH_b1_07641_af2_000000285_0001_1_21_H_._HHH_b2_08153_0001_0000100011_0000001_0_af2pred_0001 (protein)
chain: SSSSNEESERVMELLRRVAELLKEGNPEEAEELVQEALEIAEELGNLAAAFSARYLLELISSSSS
B3: il10ra_site1_normal_mot_b26a303360aa2756ef5b79665ce52f45_0001_000000179_0001_1_11_H_._HHH_b2_08001_af2_0001_0000700018_0000001_0_af2pred_dldesign_0_af2pred (protein)
chain: SSSSSSSTSQKIIELIKKASELEDKEEARKVLEEALALAKAANNPVFVHAVEYRLSLLSSSSSSS
B4: il10ra_site1_normal_mot_HHH_b2_01447_af2_000000258_0001_1_20_H_._HHH_b2_04530_0001_0000300019_0000002_0_af2pred_0001 (protein)
chain: SSSSSDVTEEVAELAEEVAELEREGDKEEAEEVLRKAKEIAEENNNYVFRVALEFLEEILSSSSS
B5: il10ra_site1_normal_mot_HHH_b1_04175_af2_000000064_0001_24_41_H_._HHH_b2_08305_0001_0000400044_0000001_0_af2pred_0001 (protein)
chain: SSSSDVEEEVRELLEEAKHIEDPREAAEVLLKALELAYKNNDPELIQLVAKVARELKEEDSSSSS
B6: il10ra_site1_normal_mot_HHH_b2_08186_000000021_0001_43_56_H_._HHH_b2_05168_af2_0001_0000100001_0000002_0 (protein)
chain: SSSSSDEEVKEEVERLLEEAEHVSEEEAIRLLLKALRIAYENKDEELLQEIWEVLKELASSSSSS
B7: il10ra_site1_normal_mot_HHH_b2_02337_000000026_0001_38_52_H_._HHH_b2_04776_0001_0000400041_0000001_0 (protein)
chain: SSSSSSEEEEEIEELLERLERAKSDEEISEVALRLARLIWEANNSELLRLLWEIVKKLASSSSSS
B8: il10ra_site1_normal_mot_HHH_b1_03353_af2_000000170_0001_1_18_H_._HHH_b2_01529_0001_0000100007_0000001_0 (protein)
chain: SSSSTEAYEVARRAIEEAAKLLREGDDEQAREVLEEAIRIAEELGNFAAVFALEHLLRVLRSSSS
B9: il10ra_site1_normal_mot_HHH_b2_00076_000000055_0001_40_55_H_._HHH_b1_05082_0001_0000800045_0000001_0 (protein)
chain: SSSSSEEERVEELLEEAKRIPDPREVARLLQEATHIALRAGNQELLQEIYRVFREIIEELSSSSS
B10: il10ra_site1_normal_mot_HHH_b2_02337_000000026_0001_38_52_H_._HHH_b2_02614_0001_0000400012_0000001_0 (protein)
chain: SSSSSEEEEESERLLRELEELLKEGDEERFIQVAQRAARFAFERSDQELLRAIWELVKKLSSSSS

For this test, the target named is il10ra, Q13651. Briefly: yeast display titration.
In the case of B1, the “apparent Kd” value was “inactive: no binding seen”. Under B2 stands “inactive: no binding seen”.

For B3, the “apparent Kd” value was “inactive: no binding seen”. The value for B4 was “inactive: no binding seen”.

For B5, the “apparent Kd” value was “inactive: no binding seen”. B6: the “apparent Kd” value is “inactive: no binding seen”. The value for B7 was “inactive: no binding seen”; that for B8 was “inactive: no binding seen”. Under B9 stands “inactive: no binding seen”; under B10, “inactive: no binding seen”.

The values above are taken from paper PMC10163288.
